# Measurements taken from the supplement of paper PMC8728848.
# This is one part of the list.
# B1: AntigenI/IIC123 (Streptococcus mutans), C9E3B4 (protein)
# chain: MASMTGGQQMGRIHFHYFKLAVQPQVNKEIRNNNDINIDRTLVAKQSVVKFQLKTADLPAGRDETTSFVLVDPLPSGYQFNPEATKAASPGFDVTYDNATNTVTFKATAATLATFNADLTKSVATIYPTVVGQVLNDGATYKNNFTLTVNDAYGIKSNVVRVTTPGKPNDPDNPNNNYIKPTKVNKNENGVVIDGKTVLAGSTNYYELTWDLDQYKNDRSSADTIQKGFYYVDDYPEEALELRQDLVKITDANGNEVTGVSVDNYTNLEAAPQEIRDVLSKAGIRPKGAFQIFRADNPREFYDTYVKTGIDLKIVSPMVVKKQMGQTGGSYENQAYQIDFGNGYASNIIINNVPKINPKKDVTLTLDPADTNNVDGQTIPLNTVFNYRLIGGIIPADHSEELFEYNFYDDYDQTGDHYTGQYKVFAKVDITFKDGSIIKSGAELTQYTTAEVDTAKGAITIKFKEAFLRSVSIDSAFQAESYIQMKRIAVGTFENTYINTVNGVTYSSLEHHHHHH
# Tests used:
# Assay in all cases: glycan array binding signal (z-score within array); higher = stronger binding
# Conditions in all cases: glycan notation: IUPAC condensed, linker removed
# Gal(b1-2)Gal = target: Gal(b1-2)Gal
# Outline: (§1)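 The binding signal is a Z-score computed within each array. Data were drawn from 3228 arrays in the Consortium for Functional Glycomics database, restricted to those with a known protein sequence. Scores were averaged over arrays of the same protein sequence at different concentrations or buffers, and over linkers, and negative values can be taken as non-binding.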
# Gal(b1-3)Gal = target: Gal(b1-3)Gal
# Outline: as §1
# Gal(b1-3)Gal(b1-4)GlcNAc = target: Gal(b1-3)Gal(b1-4)GlcNAc
# Outline: as §1
# Gal(b1-3)GalNAc = target: Gal(b1-3)GalNAc
# Outline: as §1
# [1] = target: Gal(b1-3)GalNAc(a1-3)[Fuc(a1-2)]Gal(b1-4)Glc
# Outline: as §1
# [2] = target: Gal(b1-3)GalNAc(a1-3)[Fuc(a1-2)]Gal(b1-4)GlcNAc
# Outline: as §1
# Gal(b1-3)GalNAc(b1-3)Gal = target: Gal(b1-3)GalNAc(b1-3)Gal
# Outline: as §1
# [3] = target: Gal(b1-3)GalNAc(b1-3)Gal(a1-4)Gal(b1-4)Glc
# Outline: as §1
# [4] = target: Gal(b1-3)GalNAc(b1-4)Gal(b1-4)Glc
# Outline: as §1
# [5] = target: Gal(b1-3)GalNAc(b1-4)[Neu5Ac(a2-3)]Gal(b1-4)Glc
# Outline: as §1
# Gal(b1-3)GlcNAc = target: Gal(b1-3)GlcNAc
# Outline: as §1
# [6] = target: Gal(b1-3)GlcNAc(a1-3)Gal(b1-4)GlcNAc
# Outline: as §1
# [7] = target: Gal(b1-3)GlcNAc(a1-6)Gal(b1-4)GlcNAc
# Outline: as §1
# Gal(b1-3)GlcNAc(b1-2)Man = target: Gal(b1-3)GlcNAc(b1-2)Man
# Outline: as §1
# [8] = target: Gal(b1-3)GlcNAc(b1-2)Man(a1-3)[Gal(b1-3)GlcNAc(b1-2)Man(a1-6)]Man(b1-4)GlcNAc(b1-4)GlcNAc
# Outline: as §1
# [9] = target: Gal(b1-3)GlcNAc(b1-2)Man(a1-3)[Gal(b1-3)GlcNAc(b1-2)Man(a1-6)]Man(b1-4)GlcNAc(b1-4)[Fuc(a1-6)]GlcNAc
# Outline: as §1
# [10] = target: Gal(b1-3)GlcNAc(b1-2)Man(a1-3)[GlcNAc(b1-4)][Gal(b1-3)GlcNAc(b1-2)Man(a1-6)]Man(b1-4)GlcNAc(b1-4)GlcNAc
# Outline: as §1
# [11] = target: Gal(b1-3)GlcNAc(b1-2)[Gal(b1-3)GlcNAc(b1-6)]Man(a1-6)[Gal(b1-3)GlcNAc(b1-2)Man(a1-3)]Man(b1-4)GlcNAc(b1-4)GlcNAc
# Outline: as §1
# [12] = target: Gal(b1-3)GlcNAc(b1-3)Gal(b1-3)GlcNAc
# Outline: as §1
# [13] = target: Gal(b1-3)GlcNAc(b1-3)Gal(b1-4)Glc
# Outline: as §1
# [14] = target: Gal(b1-3)GlcNAc(b1-3)Gal(b1-4)GlcNAc
# Outline: as §1
# [15] = target: Gal(b1-3)GlcNAc(b1-3)Gal(b1-4)GlcNAc(b1-2)Man(a1-3)[Gal(b1-3)GlcNAc(b1-3)Gal(b1-4)GlcNAc(b1-2)Man(a1-6)]Man(b1-4)GlcNAc(b1-4)GlcNAc
# Outline: as §1
# [16] = target: Gal(b1-3)GlcNAc(b1-3)Gal(b1-4)GlcNAc(b1-2)[Gal(b1-3)GlcNAc(b1-3)Gal(b1-4)GlcNAc(b1-6)]Man(a1-6)[Gal(b1-3)GlcNAc(b1-3)Gal(b1-4)GlcNAc(b1-2)Man(a1-3)]Man(b1-4)GlcNAc(b1-4)[Fuc(a1-6)]GlcNAc
# Outline: as §1
# [17] = target: Gal(b1-3)GlcNAc(b1-3)Gal(b1-4)GlcNAc(b1-3)Gal(b1-4)GlcNAc(b1-2)[Gal(b1-3)GlcNAc(b1-3)Gal(b1-4)GlcNAc(b1-3)Gal(b1-4)GlcNAc(b1-6)]Man(a1-6)[Gal(b1-3)GlcNAc(b1-3)Gal(b1-4)GlcNAc(b1-3)Gal(b1-4)GlcNAc(b1-2)Man(a1-3)]Man(b1-4)GlcNAc(b1-4)[Fuc(a1-6)]GlcNAc
# Outline: as §1
# [18] = target: Gal(b1-3)GlcNAc(b1-3)Gal(b1-4)GlcNAc(b1-6)[Gal(b1-3)GlcNAc(b1-3)]Gal(b1-4)Glc
# Outline: as §1
# [19] = target: Gal(b1-3)GlcNAc(b1-3)Gal(b1-4)[Fuc(a1-3)]GlcNAc
# Outline: as §1
# [20] = target: Gal(b1-3)GlcNAc(b1-3)Gal(b1-4)[Fuc(a1-3)]GlcNAc(b1-6)[Gal(b1-3)GlcNAc(b1-3)]Gal(b1-4)Glc
# Outline: as §1
# [21] = target: Gal(b1-3)GlcNAc(b1-3)GalNAc
# Outline: as §1
# [22] = target: Gal(b1-3)GlcNAc(b1-6)Gal(b1-4)GlcNAc
# Outline: as §1
# [23] = target: Gal(b1-3)GlcNAc(b1-6)GalNAc
# Outline: as §1
# [24] = target: Gal(b1-3)GlcNAc(b1-6)[Gal(b1-3)]GalNAc
# Outline: as §1
# Gal(b1-3)GlcNAc6S = target: Gal(b1-3)GlcNAc6S
# Outline: as §1
# [25] = target: Gal(b1-3)[Fuc(a1-4)]GlcNAc
# Outline: as §1
# [26] = target: Gal(b1-3)[Fuc(a1-4)]GlcNAc(b1-2)Man
# Outline: as §1
# [27] = target: Gal(b1-3)[Fuc(a1-4)]GlcNAc(b1-2)Man(a1-3)[Gal(b1-3)[Fuc(a1-4)]GlcNAc(b1-2)Man(a1-6)]Man(b1-4)GlcNAc(b1-4)[Fuc(a1-6)]GlcNAc
# Outline: as §1
# [28] = target: Gal(b1-3)[Fuc(a1-4)]GlcNAc(b1-3)Gal(b1-3)[Fuc(a1-4)]GlcNAc
# Outline: as §1
# [29] = target: Gal(b1-3)[Fuc(a1-4)]GlcNAc(b1-3)Gal(b1-4)[Fuc(a1-3)]GlcNAc
# Outline: as §1
binder,measurement,setting,value
B1,glycan array binding signal (z-score),Gal(b1-2)Gal,-0.762
same,glycan array binding signal (z-score),Gal(b1-3)Gal,-1.1
same,glycan array binding signal (z-score),Gal(b1-3)Gal(b1-4)GlcNAc,0.338
same,glycan array binding signal (z-score),Gal(b1-3)GalNAc,-0.062
same,glycan array binding signal (z-score),[1],-0.468
same,glycan array binding signal (z-score),[2],-0.841
same,glycan array binding signal (z-score),Gal(b1-3)GalNAc(b1-3)Gal,-0.382
same,glycan array binding signal (z-score),[3],-0.393
same,glycan array binding signal (z-score),[4],0.016
same,glycan array binding signal (z-score),[5],-0.777
same,glycan array binding signal (z-score),Gal(b1-3)GlcNAc,-0.67
same,glycan array binding signal (z-score),[6],-0.666
same,glycan array binding signal (z-score),[7],-1.82
same,glycan array binding signal (z-score),Gal(b1-3)GlcNAc(b1-2)Man,-0.078
same,glycan array binding signal (z-score),[8],1.89
same,glycan array binding signal (z-score),[9],1.19
same,glycan array binding signal (z-score),[10],-0.382
same,glycan array binding signal (z-score),[11],1.06
same,glycan array binding signal (z-score),[12],-0.162
same,glycan array binding signal (z-score),[13],0.287
same,glycan array binding signal (z-score),[14],-0.59
same,glycan array binding signal (z-score),[15],-0.721
same,glycan array binding signal (z-score),[16],1.32
same,glycan array binding signal (z-score),[17],1.18
same,glycan array binding signal (z-score),[18],-0.366
same,glycan array binding signal (z-score),[19],-0.941
same,glycan array binding signal (z-score),[20],-0.418
same,glycan array binding signal (z-score),[21],-0.623
same,glycan array binding signal (z-score),[22],-0.051
same,glycan array binding signal (z-score),[23],-0.118
same,glycan array binding signal (z-score),[24],0.941
same,glycan array binding signal (z-score),Gal(b1-3)GlcNAc6S,-0.331
same,glycan array binding signal (z-score),[25],-0.616
same,glycan array binding signal (z-score),[26],0.022
same,glycan array binding signal (z-score),[27],-0.554
same,glycan array binding signal (z-score),[28],0.036
same,glycan array binding signal (z-score),[29],-0.913

# Random excerpt: 2 entries already listed.
binder,measurement,setting,value
B1,glycan array binding signal (z-score),[24],0.941
same,glycan array binding signal (z-score),[22],-0.051
